Drawing on publication PMC7819943, “Rice protein-binding microarrays: a tool to detect cis-acting elements near promoter regions in rice”, this text covers binding signal for 42 sequences.

Protein sequences, listed by entry. Tags and fused reporters are not part of them.
UniProt Q0JBA9, entry or part of it: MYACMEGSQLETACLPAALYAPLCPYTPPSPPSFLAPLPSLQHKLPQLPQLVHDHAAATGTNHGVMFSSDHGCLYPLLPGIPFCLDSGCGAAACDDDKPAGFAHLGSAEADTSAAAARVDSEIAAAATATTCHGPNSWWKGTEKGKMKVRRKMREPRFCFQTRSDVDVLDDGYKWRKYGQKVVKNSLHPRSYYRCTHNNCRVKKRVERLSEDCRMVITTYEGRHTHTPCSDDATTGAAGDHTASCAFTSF

The other results are listed elsewhere or left out.

For this assay, the target named is OsWRKY34 (Oryza sativa, UniProt Q0JBA9 1-250). As to the kind of experiment: protein-binding microarray (RPBM); PBS, 2% BSA, 51.3 ng/ul salmon testes DNA, 50 uM zinc acetate, 200 nM TF, 25 C, 1 h; high values mean tight binding. The conditions noted are these: protein: recombinant; tags: N-terminal polyhistidine and DsRed monomer fusion (pET32a); label: CyDye5-dUTP incorporated in the synthesized complementary strand; 3' TTTTT single-stranded linker to array surface; dsDNA, one strand shown. The gist of the method: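 Using Ni–NTA, transcription factors fused N-terminally to polyhistidine and DsRed were purified after expression in E. coli BL21-CodonPlus. These were incubated at 200 nM with a blocked, double-stranded custom Agilent array for 1 h at 25 °C in a buffer containing 50 µM zinc acetate, and the array was washed. The binding signal is per-feature fluorescence intensity (arbitrary units) on an Axon 4000B scanner.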
Turning to “ACTTCAGGTCATCCCATCTTCCTTTGACTGAATTTGATCACGGAGTCACCTAGTGCAG”, the binding signal was 10000 fluorescence intensity (a.u.).

For “CCTATGTATTTTCTTCCGCACATCTTGCACCAGCCGGTCACGGAGTCACCTAGTGCAG”, the binding signal was 8880 fluorescence intensity (a.u.).

As for “CTTGTGGCTTGTGCAATTCTGTTTCATCGAGTTTGTTAACCGGAGTCACCTAGTGCAG”, the binding signal is 8830 fluorescence intensity (a.u.).

On to “TGGACACCTATACCTCTGGTATTCCCTTGCGTTTTGATCGCGGAGTCACCTAGTGCAG”, for which the binding signal was 8110 fluorescence intensity (a.u.).

On to “TGTACGGTTTTTCACGGTTACCGCGCGGTAACCGTGCTTACGGAGTCACCTAGTGCAG”, for which the binding signal was 8410 fluorescence intensity (a.u.).

Regarding “TGTTTATCATTTTGCTGGATTCTGTTCATACTTTTGCTTTCGGAGTCACCTAGTGCAG”, the binding signal is 10300 fluorescence intensity (a.u.).

Take “GATTTGTATTGGTTTTAATAGTAGGGGAATTTCTATACCTCGGAGTCACCTAGTGCAG”: the binding signal was 8140 fluorescence intensity (a.u.).

For the sequence “TGACTCCCTCAGCGGTTTTGGATGGCGGTTTTGCTGATGTCGGAGTCACCTAGTGCAG”, the binding signal was 10200 fluorescence intensity (a.u.).

Take “TCTCTCGTCGGCTCGTCGCCGGCGCGCCACCTCCGCCGCCCGGAGTCACCTAGTGCAG”: the binding signal is 9020 fluorescence intensity (a.u.).

With “CATCCATAGTTCTCTCCGTTCTCCAGCGACCACTGTTCCACGGAGTCACCTAGTGCAG”, the binding signal was 10500 fluorescence intensity (a.u.).

“GCTTCTTCCATCTGCTCTTTTGTTGCGCCCTGATTCTGCACGGAGTCACCTAGTGCAG”: the binding signal was 10100 fluorescence intensity (a.u.).

Regarding “CCCGTGTTCTTGTACCAAACCTCGACGCGAACGTCCTCGACGGAGTCACCTAGTGCAG”, the binding signal was 8640 fluorescence intensity (a.u.).

Consider “ATCCATCCATCCATCTGCCGCAAATCTCCTCGTCGTTTCGCGGAGTCACCTAGTGCAG”, for which the binding signal is 8580 fluorescence intensity (a.u.).

As to “CTCTCTTTTTAACTGCTGTTCGTGTTCTTCTCTGCCGCCACGGAGTCACCTAGTGCAG”, the binding signal is 8590 fluorescence intensity (a.u.).

In the case of “AAAAGCCCAGCAACCACCACGAAACCCACGCGAAACACACCGGAGTCACCTAGTGCAG”, the binding signal was 8230 fluorescence intensity (a.u.).

“CACAACAAGCGATACAACCTACCACTGCATCATAACACCACGGAGTCACCTAGTGCAG”: the binding signal was 8910 fluorescence intensity (a.u.).

As to “CACCCTCACCCTCGTCGCCAACCGCCCCGCCCTCGCGGTCCGGAGTCACCTAGTGCAG”, the binding signal is 9250 fluorescence intensity (a.u.).

On to “GCGGTGGAGGGCCGGCGGAGAGGGGAGCAGCGGTGGAGGGCGGAGTCACCTAGTGCAG”, for which the binding signal was 11000 fluorescence intensity (a.u.).

On to “GATATTTATGATCCTGTTACCATTTCGAGCCTTACTGTTTCGGAGTCACCTAGTGCAG”, for which the binding signal was 13200 fluorescence intensity (a.u.).

As for “CGTTCGTTTTTTCCTTCTTTGCAGCCGCTACCAGCTCCCACGGAGTCACCTAGTGCAG”, the binding signal is 9020 fluorescence intensity (a.u.).

For “ACTCTGGGTTTCCGTGTCCAATTTTGACTGTCCGTCTTATCGGAGTCACCTAGTGCAG”, the binding signal is 11700 fluorescence intensity (a.u.).

“GAGTCTACTGGCAAAATTTTGCTCTCTATTTTTTTTTTCTCGGAGTCACCTAGTGCAG”: the binding signal is 8370 fluorescence intensity (a.u.).

“TTTGCTTACTCTCTCCGCCCTCCTAAACCCTACGACCATGCGGAGTCACCTAGTGCAG”: the binding signal was 8870 fluorescence intensity (a.u.).

As for “GTGTGGCCCACTTCCGGACCCCAACAACCAACCAAAACCTCGGAGTCACCTAGTGCAG”, the binding signal was 9140 fluorescence intensity (a.u.).

Regarding “CCACAGCTCCGGCCTTTTTATTTTTAATTTTTTTTAATTACGGAGTCACCTAGTGCAG”, the binding signal was 8670 fluorescence intensity (a.u.).

“ATGATCGTTTATCCAGTGTCCTATAATGCTCCTATATTCACGGAGTCACCTAGTGCAG”: the binding signal is 11000 fluorescence intensity (a.u.).

For the sequence “TTCCGGTTTTCTGATATTTTCGATATTGTTTTCATTTCCGCGGAGTCACCTAGTGCAG”, the binding signal is 15500 fluorescence intensity (a.u.).

“CTCTCTCTCTCTCTTTCCTCTCGCTATCGCCGTATCTCTCCGGAGTCACCTAGTGCAG”: the binding signal is 11800 fluorescence intensity (a.u.).

Turning to “TCAAACTGACTGGCACGCTCGCATCTCATCAATCGTTGGACGGAGTCACCTAGTGCAG”, the binding signal is 9580 fluorescence intensity (a.u.).

Turning to “ACCCCGACCGCCGGCCCAAAATCCTCATTGCTTGTAGTAGCGGAGTCACCTAGTGCAG”, the binding signal is 8650 fluorescence intensity (a.u.).

Turning to “CAAGAGTCTGTCCACGTCGGTCTTTTAGCTCTTTCTGTAACGGAGTCACCTAGTGCAG”, the binding signal is 8210 fluorescence intensity (a.u.).

Regarding “TTAGCATCCCGGCGGTCTCACCTGTCATCTCATCTCATCTCGGAGTCACCTAGTGCAG”, the binding signal is 13500 fluorescence intensity (a.u.).

Regarding “ATGTTAAATTAGTCTTAGTGCTTCCACCCTAGTAAACAACCGGAGTCACCTAGTGCAG”, the binding signal is 8320 fluorescence intensity (a.u.).

For “TCTAAAAATCTAGCTGCATTTCACATTTCATCATCCTCCTCGGAGTCACCTAGTGCAG”, the binding signal is 8360 fluorescence intensity (a.u.).

Turning to “CGTCCCTTTCGCCCAGCACCTTGTCGGAGACCGACGCGCCCGGAGTCACCTAGTGCAG”, the binding signal is 9110 fluorescence intensity (a.u.).

With “CCGCACGATATTCTTGACATCCCCTTGTCTCATTTGCACACGGAGTCACCTAGTGCAG”, the binding signal is 8800 fluorescence intensity (a.u.).

For the sequence “ACTAGTCGTCTCGTCGTGCTGCGCACTCGCCCCATCGACGCGGAGTCACCTAGTGCAG”, the binding signal was 8620 fluorescence intensity (a.u.).

For the sequence “GTTTGACCAGATGCTTTCAATTTCCTATGACTCATTTATTCGGAGTCACCTAGTGCAG”, the binding signal is 10200 fluorescence intensity (a.u.).

As to “TCTCCACCACTCGTTGACCAGCTATCTTCCTCTTGCCTTCCGGAGTCACCTAGTGCAG”, the binding signal was 16000 fluorescence intensity (a.u.).

Take “ACAAGCCCTGAACGATGCATTCACACGGATCAATTAACACCGGAGTCACCTAGTGCAG”: the binding signal was 8230 fluorescence intensity (a.u.).

For the sequence “ATCCCAAGCTATATATATACTCATCTGATCCATTTCCTCCCGGAGTCACCTAGTGCAG”, the binding signal was 10400 fluorescence intensity (a.u.).

Turning to “CCTAAAGATCAGCATTTAAAATATTTTTCGTGTATTTTCCCGGAGTCACCTAGTGCAG”, the binding signal was 8600 fluorescence intensity (a.u.).
